Results from paper PMC10356771.
No constants are given. Whether binding was seen depends on the method and setting. In cells and extracts the contact can be indirect. Some binding calls cover weakened binding; strength is not graded here. For some assays here: Sequences can lack the tags named with a protein.

Sequences of proteins named here, by UniProt entry; tags and fusion partners are left off.
UniProt Q62296: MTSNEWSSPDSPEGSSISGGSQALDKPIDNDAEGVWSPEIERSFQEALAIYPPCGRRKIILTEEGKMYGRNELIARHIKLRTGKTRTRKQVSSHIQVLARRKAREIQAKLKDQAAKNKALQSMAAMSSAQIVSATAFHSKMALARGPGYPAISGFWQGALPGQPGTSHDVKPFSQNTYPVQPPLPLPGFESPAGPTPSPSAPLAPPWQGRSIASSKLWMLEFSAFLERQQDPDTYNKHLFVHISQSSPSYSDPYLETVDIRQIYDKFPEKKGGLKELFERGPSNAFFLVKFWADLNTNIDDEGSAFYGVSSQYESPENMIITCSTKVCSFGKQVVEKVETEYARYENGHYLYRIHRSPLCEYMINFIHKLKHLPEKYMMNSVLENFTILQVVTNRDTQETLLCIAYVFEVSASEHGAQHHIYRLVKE
UniProt Q9Z0Z7: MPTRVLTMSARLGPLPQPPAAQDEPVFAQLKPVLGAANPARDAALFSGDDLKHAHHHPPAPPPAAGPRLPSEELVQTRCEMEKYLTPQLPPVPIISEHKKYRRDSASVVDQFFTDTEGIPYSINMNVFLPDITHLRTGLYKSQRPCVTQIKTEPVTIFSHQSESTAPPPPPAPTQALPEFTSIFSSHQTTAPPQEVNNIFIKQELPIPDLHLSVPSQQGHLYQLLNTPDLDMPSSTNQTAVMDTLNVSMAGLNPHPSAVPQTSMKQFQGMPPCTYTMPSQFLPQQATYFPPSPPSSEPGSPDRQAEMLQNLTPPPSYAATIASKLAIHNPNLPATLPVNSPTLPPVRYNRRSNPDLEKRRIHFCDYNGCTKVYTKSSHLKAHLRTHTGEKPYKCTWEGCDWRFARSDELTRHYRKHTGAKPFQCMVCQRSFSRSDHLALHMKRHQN

Experiments:
Myogenin-Flag = target: T1, Myogenin-Flag (UniProt P12979); test: co-IP; HEK293T cells expressing tagged proteins; Flag M2 antibody on Dynabeads Protein G; lysis buffer 50 mM Tris-HCl pH 7.5, 150 mM NaCl, 1% NP-40, 0.1% sodium deoxycholate; 3 h at 4 °C; eluted with 3x Flag peptide; Western blot
T1 sequence: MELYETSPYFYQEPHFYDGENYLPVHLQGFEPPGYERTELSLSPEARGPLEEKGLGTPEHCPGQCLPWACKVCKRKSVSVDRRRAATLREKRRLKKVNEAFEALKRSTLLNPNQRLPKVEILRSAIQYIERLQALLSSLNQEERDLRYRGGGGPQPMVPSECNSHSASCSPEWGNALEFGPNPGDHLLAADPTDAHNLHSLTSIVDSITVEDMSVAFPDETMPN

[1] = target: T2, Myogenin (endogenous, C2C12) (mouse (endogenous in C2C12)) (UniProt P12979); test: co-IP; endogenous proteins in C2C12 cells; precipitating antibody not told in the text shown
T2 sequence: T1 sequence

[2] = target: Tead4 (endogenous, C2C12) (mouse (endogenous in C2C12)) (UniProt Q62296); test: as above
Tead4-Flag = Tead4-Flag (UniProt Q62296); test: co-IP; HEK293T cells expressing tagged proteins; Flag M2 antibody on Dynabeads Protein G; lysis buffer 50 mM Tris-HCl pH 7.5, 150 mM NaCl, 1% NP-40, 0.1% sodium deoxycholate; 3 h at 4 °C; eluted with 3x Flag peptide; Western blot

Q: With Tead4-HA (from UniProt Q62296 1-427) as the substance, how does the binding (Myogenin-Flag) read?
A: Its binding is “binds”.

Q: With “Tead4 (endogenous, C2C12) (from UniProt Q62296 1-427)” as the substance, how does the binding [1] read?
A: Its binding is “binds”.

Q: For “Klf5 (endogenous, C2C12) (from UniProt Q9Z0Z7 1-446)”, which binding [2] is on record?
A: Its binding is “binds”.

Q: Which binding (Tead4-Flag) does the source give for Klf5-HA (from UniProt Q9Z0Z7 1-446) here?
A: The binding was “binds”.

Q: And the binding (Myogenin-Flag)?
A: The binding was “binds”.
